Test results from paper PMC2577925.
These are yes or no findings as the source states them, for the method shown. In cells and extracts the contact can be indirect. Some results given as binding are weak or reduced against the parent protein; the word gives no strength. Where a sequence is shown, tags or fusion partners need not be part of it.

Biological target: T1, survival motor neuron (SMN) protein, Drosophila (Drosophila melanogaster (endogenous in larval muscle)) (UniProt Q9VV74)
T1 sequence: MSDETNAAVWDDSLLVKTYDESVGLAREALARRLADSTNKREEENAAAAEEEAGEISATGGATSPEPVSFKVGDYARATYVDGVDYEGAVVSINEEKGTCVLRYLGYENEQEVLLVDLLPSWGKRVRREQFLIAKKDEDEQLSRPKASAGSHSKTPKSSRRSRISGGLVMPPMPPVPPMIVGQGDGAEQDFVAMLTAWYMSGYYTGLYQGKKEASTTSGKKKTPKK
Test: co-IP; Protein A beads with rabbit anti-SMN; lysate of about 30 larval body wall muscle fillets per IP from CFP::Gemin3 transgenic larvae; lysis buffer 50 mM Tris pH8, 150 mM NaCl, 1 mM EDTA, 1% NP-40; blot probed with mouse anti-GFP; non-specific serum as negative control

B1: CFP::Gemin3 fusion protein (Drosophila melanogaster Gemin3) (protein, UniProt Q9V3C4 1-1028)
chain: MEREIAHSLAGGEERSSDVAPGQVKTFEELRLYRNLLNGLKRNNFVTPTKIQAAAIPMALAKMDLIIQSKSGTGKTLIYVIAVVQSFNPNINQPHAMIVVPTRELAIQVQDTFFHLCKSFRDFKCSAFIGGTDVAKDRKRMNESRVIIGTPGRLLHLYENRVFDVSKLRLLVLDEADQLYQTKSLQHTVSKLIEAMPKNRQIIACSATYDQNLDERLAKVMDKPMLISNSERATVLLGIRQFVYELPQQNNSVEEMRLKLQILGQIFNQLPYEQAIIFASSQMRADSYKNYLTASGIDCHLISGAMEQSERLHVFEGYRNFTMRILVATDLMARGVDSPHANLVINIDPPQDHVTYLHRIGRAGRFGSKGIAITFIASKKESQRFREMSKKIATAWSVLEFPKEPMPNEFNFWDFEKYNFDYYIKEENPLQEMPMPIKENRSKENVDASSVDLENLQKDQDGKRRDPDKLPVALENVETQKELELENLPESSHNNKNLRVKEKEIVRQGKLKETNSKAGGSKTNKTERRKKSNTPSKLQKQITEVQQTPEITVNKYYMQEDIQRTADGKEYHPVNGAGNHQVPSKSNQKPVEFISPELTPTLTPLELTQEPSPTTVTPPAPPANSINNKTYCLAAPTQTSSMTIQNMVISNTVDDASSISSDSMVVCGYHSDRSYDTYYATSDEEEIWNRLMSKQRRQLKSKRGHGKRRVILYKKVFPKLKANVKRKLKKRMSSSCRSKKAHHLRKRHVYKNISLLPHMNLCHLLQKFTNQERFLKRLHKYAKNQFIDNARVGFLLDKLYKSILEMYYNSAKERKKHFKEAMKESLKSIDNYESQESSESEEEEEEEKDLKNKLSVHVTNQMDIPPMPQAAVEIGSGSESDTEDSQEYGEGEEIIVDDEDDGSDGGPNSSSGFVESQESVSSGIDTSVYETESTGASGNNSSAFFISDDESDTESLTDSEAGSNVSATGSSSQRSSVASSTYESSDDDSVTVTNVSSMQNAQSLWLQTFNMQYQFIASHVAKNLQNYY
binding: binds
